At least one compound was matched to its structure with a doubt left.
Assays:
[1] = molecular target: T1, TLR4 (Homo sapiens, UniProt O00206+Q9Y6Y9); assay: Competitive inhibition of pro-inflammatory LPS in THP-1 Dual reporter cells; settings: 10 ng/mL ASLA 468 added to five-log dilution of Ec LPS
[2] = molecular target: T1, TLR4; assay: NF-κB activation screen in THP-1 Dual reporter cells (SEAP under NFκB promoter); assay type: cell-based; design: host or cells: THP-1 Dual reporter cells; settings: five-log dilution series, compared to Ec LPS positive control
Protocol: To identify the most successful ASLA candidates to be tested for efficacy in vivo, we will stimulate both human and mouse cell cultures with increasing concentrations (0.01 ng/ml, 0.1 ng/ml, 1 ng/ml, 10 ng/ml, 100 ng/ml) of novel lipid A preparations for 4 and 24 hours. All in vitro assays will be run in biological triplicate to increase the scientific rigor of experiments. Activation of inflammatory pathways will be investigated by stimulating THP-1 cells (ATTC), a human monocytic cell line, followed by multiplex analysis of cytokines in the supernatant minimally including TNF-α, IL-8, and IL-6. We will also screen ASLA molecules using THP-1 Dual (Invitrogen) and HEK293 cells transfected with human or mouse MD2/TLR4 (Invitrogen), which have an easily detectable SEAP transcript under the NF-kB promoter to quickly evaluate the potential for these ASLA molecules to inhibit MyD88-NF-kB activation. To account for authentication of key biological resources, all cell lines were purchased from and verified by either ATCC or Invitrogen within the past year and cells used in experiments have been passaged less than 15 times since purchase. Together, these assays will illustrate a lack of inflammatory activation when cells are stimulated with the ASLA molecules. […]

Protein sequences, listed by entry. Tags and fused reporters are not part of them. Residues count along the entry.
UniProt O00206, 24-839: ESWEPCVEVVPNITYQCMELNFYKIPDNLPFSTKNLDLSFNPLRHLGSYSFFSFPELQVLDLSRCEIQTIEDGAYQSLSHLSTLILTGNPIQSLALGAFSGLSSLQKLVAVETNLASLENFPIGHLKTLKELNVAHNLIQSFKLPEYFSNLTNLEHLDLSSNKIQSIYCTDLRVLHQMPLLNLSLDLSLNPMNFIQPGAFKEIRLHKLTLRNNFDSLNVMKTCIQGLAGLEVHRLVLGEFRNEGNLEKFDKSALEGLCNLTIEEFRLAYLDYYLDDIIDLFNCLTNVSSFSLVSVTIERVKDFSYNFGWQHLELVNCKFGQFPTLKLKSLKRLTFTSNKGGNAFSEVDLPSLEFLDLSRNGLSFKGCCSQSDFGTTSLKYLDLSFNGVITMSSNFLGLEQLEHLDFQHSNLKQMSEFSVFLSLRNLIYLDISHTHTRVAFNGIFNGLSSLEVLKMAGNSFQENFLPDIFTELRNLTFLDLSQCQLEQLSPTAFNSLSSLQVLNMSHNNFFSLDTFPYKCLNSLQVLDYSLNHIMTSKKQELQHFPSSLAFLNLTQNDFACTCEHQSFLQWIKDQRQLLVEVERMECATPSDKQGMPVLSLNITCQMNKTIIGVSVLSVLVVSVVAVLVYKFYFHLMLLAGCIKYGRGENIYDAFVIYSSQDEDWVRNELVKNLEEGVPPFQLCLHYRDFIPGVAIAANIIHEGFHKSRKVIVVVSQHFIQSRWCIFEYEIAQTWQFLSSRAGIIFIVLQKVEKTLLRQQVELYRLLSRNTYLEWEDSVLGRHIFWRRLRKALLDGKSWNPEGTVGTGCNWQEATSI
UniProt Q9Y6Y9, 17-160 limits assumed: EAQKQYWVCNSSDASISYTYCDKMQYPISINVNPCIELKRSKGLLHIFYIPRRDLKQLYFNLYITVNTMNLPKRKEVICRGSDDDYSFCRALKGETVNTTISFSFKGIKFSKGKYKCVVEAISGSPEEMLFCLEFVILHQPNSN

[3] = system: sepsis patients; settings: septic patients; cited from earlier work

SMILES	fold increase of the EC50 of Ec LPS [1]	agonist category (full, partial, or weak agonist) for NF-κB activation [2]	patient survival [3]
CCCCCC/C=C\CCCCCCCC(=O)OC(CCCCCCCCCCC)CC(=O)NC1[C@H](OCC2OC(OP(=O)(O)O)C(NC(=O)CC(O)CCCCCCCCCCC)[C@@H](OC(=O)CC(O)CCCCCCCCCCC)[C@@H]2O)OC(CO)C(O)[C@@H]1OC(=O)CC(CCCCCCCCCCC)OC(=O)CCCCCCCCCCC (stereo partly drawn) [ASLA 468]	11.8 fold	weak agonists	
CCCCCC/C=C\CCCCCCCCCC(=O)N[C@H]1[C@H](OC[C@H]2O[C@H](OP(=O)(O)O)[C@H](NC(=O)CC(=O)CCCCCCCCCCC)[C@@H](OCCCCCCCCCC)[C@@H]2O)O[C@H](COC)[C@@H](OP(=O)(O)O)[C@@H]1OCC[C@@H](CCCCCCC)OC [Eritoran]			did not improve patient survival
